In PubChem BioAssay AID720591 (Broad Institute, 2013):
Hit rate of the full screen: of about 1,200 compounds, about 60 (5%) were called active. Not shown: some 1% with an inconclusive outcome.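 How the source made its calls: active means Decreasing signal and fitted IC50 at most twice the top valid tested dose; inconclusive means Bad fit or a level curve showing 30 to 70% inhibition; inactive means the rest.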 The list shows a part of the results. Results with a measured potency or affinity are listed apart. Where a SMILES comes first, the peptide text is derived from it. The star is where a group is joined. Tos = Cc1ccc(S(=O)(=O)*)cc1

Sequences of proteins named here, by UniProt entry; tags and fusion partners are left off. A change or cut given only in a name is not applied to a line headed by its entry.
UniProt Q9NXA8: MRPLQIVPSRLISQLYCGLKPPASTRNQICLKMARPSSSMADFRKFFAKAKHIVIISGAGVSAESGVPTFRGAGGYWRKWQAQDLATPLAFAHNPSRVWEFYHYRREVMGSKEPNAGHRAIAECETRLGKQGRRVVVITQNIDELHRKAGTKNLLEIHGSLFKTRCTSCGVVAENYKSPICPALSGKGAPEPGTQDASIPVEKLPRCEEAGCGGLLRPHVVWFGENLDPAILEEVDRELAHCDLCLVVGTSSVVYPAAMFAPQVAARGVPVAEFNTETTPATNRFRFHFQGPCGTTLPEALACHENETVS

Molecular target: NAD-dependent protein deacylase sirtuin-5, mitochondrial (Homo sapiens) (UniProt Q9NXA8)
Assay: SIRT5 desuccinylase inhibitors, dose response, biochemical, fluorescence imaging, cherry-pick, set 5 (AID 720591);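 further: 0% = median of neutral control wells and -100% = median of positive control wells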
Conditions: Purified SirT5, succinyl-peptide AMC, trypsin-coupled fluorescence; at 15 µM (top of the series) unless noted

Activity change, negative = inhibition, inactive:
CC(C(=O)NCc1cccs1)N1C(=O)c2ccccc2C1=O (centres undefined) 6.38%
CN(CC(=O)Nc1ccc(Cl)c(C(F)(F)F)c1)C(=O)c1cc(=O)c2ccccc2o1 -22.6%
COc1ccccc1CNS(=O)(=O)c1ccc(Br)s1 3.57%
CC(CC(=O)Nc1ccc2c(c1)c(=O)n(C)n2-c1ccc2ccccc2c1)C(F)(F)F (centres undefined) -13.6%
CC1c2nc3ccccc3n2C(CC(=O)NCc2ccccn2)C(=O)N1Cc1ccccc1 (centres undefined) 19.5%
O=C(COc1ccccc1)Nc1ncn[nH]1 -8.98%
CC(=O)OCC(C)n1[nH]c2ccccc2c1=O (centres undefined) -31.5%
Cc1ccc(S(=O)(=O)N(C)C[C@H]2OCc3cn(nn3)CCCC(=O)N([C@@H](C)CO)C[C@@H]2C)cc1 22.2%
CC1CN(Cc2ccccc2)c2nc3c(c(=O)n(CC(=O)O)c(=O)n3C)n2C1 (centres undefined) 28.5%
CCCNC(=O)CC1C(=O)N(Cc2ccccc2)C(C)c2nc3ccccc3n21 (centres undefined) -35.5%
CCOC(=O)c1ccc(S(=O)(=O)NC2CCC(C)CC2)cc1 (centres undefined) 9.58%
Cc1cccc(COC[C@H](Cc2ccccc2)N2CCN(C(=O)c3cc(Cl)cc(Cl)c3)CCC2=O)c1 -29.7%
Cc1ccc(CNC(=O)C2CCCN(S(=O)(=O)N3CC(C)CC(C)C3)C2)cc1 (centres undefined) -20.4%
CCN(CCO)c1nc(N2CCCCC2)c2cnn(C)c2n1 4.9%
CC(C)(C)OC(=O)N(CCc1ccccc1)Cc1ccc(OCc2cccc(NC(=O)C3CC3)c2)cc1 11.2%
O=C(CSc1ccccc1Cl)N1CCOCC1 -29.6%
COc1ccc(NC(=O)C2CCCNC2=O)cc1 (centres undefined) -18.6%
COc1ccccc1S(=O)(=O)N(C)C[C@@H]1Oc2cc(C#CCC(C)C)ccc2S(=O)(=O)N([C@H](C)CO)C[C@@H]1C 4.67%
COc1ccc(N2CC(C(=O)Nc3nc4ccc(OC)cc4s3)CC2=O)cc1 (centres undefined) -3.03%
CN1CCN(c2nc3c(c(=O)[nH]c(=O)n3C)n2Cc2ccccc2)CC1 19.7%
CNC(=O)CSc1nnc(-c2ccco2)n1-c1cccc(OC)c1 0.832%
Cn1c(=O)[nH]c(=O)c2c1nc(N1CCNCC1)n2Cc1ccccc1 15.6%
OC[C@@H]1CN(Cc2cccs2)C[C@H](n2cnc3c(Nc4ccccc4)ncnc32)O1 1.28%
Cc1ccc(S(=O)(=O)N(C)CCCC(=O)NC(C)(C)CO)cc1 -1.37%
COc1ccc(NC(=O)N(C)C[C@H]2Oc3ccc(NS(=O)(=O)c4ccc(F)cc4)cc3C(=O)N([C@H](C)CO)C[C@@H]2C)cc1 -7.44%
C[C@]12c3[nH]c4ccc(Cl)cc4c3CCN1C(=O)[C@@H](CC(=O)NCc1cccc(C(F)(F)F)c1)C[C@@H]2C(=O)N1CCOCC1 -7.88%
CCc1nnc(NC(=O)CCC(=O)N2CCN(c3cc(C)ccc3C)CC2)s1 8.84%
COc1cccc(CN2CC(C(=O)N(C)CC3CCOCC3)CCC2=O)c1 (centres undefined) -21.3%
CCOc1ccc(OCC)c(NC(=O)C2CCCN(C(=O)c3ccc(Cl)cc3)C2)c1 (centres undefined) -9.86%
C[C@H](NC(=O)c1cc2c([nH]c3ccccc32)c(-c2ccccc2)n1)C(=O)O 32.4%
Cc1ccccc1CNC(=O)c1ccccc1NS(C)(=O)=O -18.2%
COc1cc(CN(C(=O)c2ccco2)c2ccc(C)cc2)ccc1O -4%
COc1ccc(Cl)cc1NC(=O)c1cccc(NC(=O)CCC(=O)O)c1 8.04%
CC1(C)CC(NC(=O)C2CCC(=O)N(C3CC3)C2)CC(C)(C)C1 (centres undefined) -4.64%
C[C@H]1CN=C(Nc2ccccc2)N1CCC1CCCCC1 12.8%
COc1cccc(CN2CCN(CCCc3ccccc3)C(CCO)C2)c1OC (centres undefined) -16.8%
Cc1n[nH]c(=O)c2c1nnn2Cc1ccccc1Cl -22.4%
O=C(NCc1ccc(F)cc1)C1CC(=O)N(C2CCCCC2)C1 (centres undefined) -24.7%
CCCC(C)C(=O)Nc1nc(C)c(-c2csc(Nc3ccc(Cl)cc3)n2)s1 (centres undefined) 20.5%
COCCCNS(=O)(=O)c1cc2c3c(c1)C(C)C(=O)N3CCC2 (centres undefined) -8.8%
CCOC(=O)C1(CCOc2ccccc2)CCN(Cc2ccc(OCCO)cc2)CC1 19.7%
CCCN1CCC(=O)N([C@H](CSc2ccc(OC)cc2)c2ccccc2)CC1 -32.1%
C[C@H](CO)N1C[C@H](C)[C@@H](CN(C)C(=O)c2ccc(N3CCN(C)CC3)cc2)OCc2cnnn2CCCC1=O 4.8%
O=C(Nc1ccnn1C1CCN(C(=O)c2ccc(C(F)(F)F)cc2)CC1)C1CC1 -25.7%
O=C(NN1CC(=O)N(c2cc(Cl)cc(Cl)c2)CC1=O)c1sccc1Cl -1.22%
Cc1cnc(C(=O)OCC(=O)Nc2cccc(S(=O)(=O)N3CCCCC3)c2)cn1 -31%
COc1ccc2nc(SCC(=O)Nc3cc(C)on3)c(C#N)cc2c1 -13.2%
COc1cc(C(=O)NCC2(N(C)C)CCCCC2)ccc1OCc1ccccc1 5.49%
COc1ccc(-c2nc3c(c(SCC(=O)Nc4cccc(O)c4)n2)Cc2c(CO)cnc(C)c2O3)cc1 -31.7%
Cc1ccc(S(=O)(=O)N[C@@H](CO)C(=O)N[C@@H](Cc2ccc(O)cc2)C(=O)O)cc1 (Tos-Ser-Tyr-OH) -11.1%
CC(C)c1ccccc1NC(=O)c1cnccn1 -32.5%
Cc1cc(NC(=O)CCC(=O)N(Cc2ccccc2)C(C(=O)NC2CCCC2)c2ccc(C)o2)no1 (centres undefined) -32.3%
C#CCSc1cc(C(F)(F)F)nc(-c2ccccn2)n1 4.04%
CCN(c1ccccc1)S(=O)(=O)c1ccc(OC)c(NC(=O)Cc2ccc(OC)c(OC)c2)c1 -30.8%

Copied from the results shown (two entries):
Activity change, negative = inhibition, inactive:
COc1ccc2nc(SCC(=O)Nc3cc(C)on3)c(C#N)cc2c1 -13.2%
COc1cc(C(=O)NCC2(N(C)C)CCCCC2)ccc1OCc1ccccc1 5.49%
